From article PMC3718791

Tests used:
[1] = target: T1, MYC-tagged SERBP1 (mouse) (UniProt Q9CY58); experiment: co-IP; HEK293T cells transfected with tagged proteins; lysis in 25 mM Tris-Cl pH7.4, 150 mM NaCl, 1% Triton X-100; MYC antibody pre-bound to Protein A Sepharose, 8 hours at 4°C; Western blot with HA or SERBP1 antibody
T1 sequence: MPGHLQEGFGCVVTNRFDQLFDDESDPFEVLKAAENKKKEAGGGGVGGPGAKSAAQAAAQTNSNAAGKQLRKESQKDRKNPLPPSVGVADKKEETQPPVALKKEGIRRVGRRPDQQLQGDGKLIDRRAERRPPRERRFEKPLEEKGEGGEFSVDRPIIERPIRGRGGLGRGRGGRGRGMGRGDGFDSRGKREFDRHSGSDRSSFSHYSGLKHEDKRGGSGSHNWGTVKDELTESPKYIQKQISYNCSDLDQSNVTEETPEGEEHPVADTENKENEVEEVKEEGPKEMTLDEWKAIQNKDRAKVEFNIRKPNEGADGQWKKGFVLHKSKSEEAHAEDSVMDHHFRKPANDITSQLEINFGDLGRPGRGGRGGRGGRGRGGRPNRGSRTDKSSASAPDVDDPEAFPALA

[2] = target: MYC-tagged SPIN1 (wild type) (mouse); experiment: as above

- binding [1]: binds
Molecule: HA-tagged SPIN1 (mouse)

- binding [2]: binds
B1: HA-tagged HABP4 (protein, UniProt Q9JKS5 1-411)
chain: MKGALGSPVAAAGAAMQETFGCVVANRFHQLLDDESDPFDILREAEHRRQQQLQRKRRDEAAAASGAGHRGGRSPAVASGHRPGAGGRRESQKERKSLAASGAQQPDSPGGPQPPGQKRTPRRGEQQGWNDNRGTDVVLERAERRSYREYRPYETERQADLPVEKFTDEKPVDRFDRDRPLRGRGGPRGGLRSRGRGGPGNRAFDSFDQRGKRDFERYSSNDKTNRMEDSMGGCGIRPWGSGKDTSDTEPPAPMEETSMMEECQGTLDEESAAKVPELEVEEENQVQEMTLDEWKNLQEQTRPKPEFNIRKPESTVPSKAVVIHKSRYRDDMVKEDYEDESHVFRKAANDITSQLEINFGNLPRPGRGARGSTRGGRGRMRRTENYGPRAEVVTQDVAPNPDDPEDFPALA

- binding [2]: binds
B2: HA-tagged SERBP1 (protein, UniProt Q9CY58 1-407)
chain: T1 sequence

These are yes or no findings as the source states them, for the method shown. Binding seen in cells or lysates may run through a third protein. Binding calls can cover weak binding; strength is not graded here. Where a sequence is shown, tags or fusion partners need not be part of it. Each block holds one molecule with its values, some of them ahead of it.
